Reference: patent publication US10961303 (UNIVERSITEIT TWENTE, dated 2021)
No constants are given. Whether binding was seen depends on the method and setting. Some results given as binding are weak or reduced against the parent protein; the word gives no strength. For part of these data: Where a sequence is shown, tags or fusion partners need not be part of it. Values belong to the binder of their own block, whether it stands above or below them.

By UniProt entry, the sequences of proteins in these tests, tags left out. Residues count along the entry.
UniProt P18075, residues 293-431: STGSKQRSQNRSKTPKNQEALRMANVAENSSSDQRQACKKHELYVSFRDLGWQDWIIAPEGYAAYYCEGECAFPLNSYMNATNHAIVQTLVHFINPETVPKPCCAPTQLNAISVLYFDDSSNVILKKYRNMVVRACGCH

What was measured:
[1] = biological target: T1, BMP-6 (R&D systems cat. #507-BP/CF) (human, UniProt P22004 382-513, limits assumed); assay: ELISA on coated growth factor (FIG. 7A)
T1 construct: Bought protein; also called recombinant human BMP-6
T1 sequence (looked up): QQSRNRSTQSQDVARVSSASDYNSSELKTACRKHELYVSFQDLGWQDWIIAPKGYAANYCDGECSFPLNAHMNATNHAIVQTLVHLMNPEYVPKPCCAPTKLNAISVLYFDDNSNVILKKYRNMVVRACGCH

[2] = biological target: T1, BMP-6 (R&D systems cat. #507-BP/CF); assay: ELISA, 100 ng BMP6 coated, serial dilutions, read at 490 nm
Description: FIG. 7A-7B show the binding properties of the fusion proteins according to the invention which bind to a growth factor or growth factor inhibitor and to a biomaterial. Fusion proteins according to the invention are composed of the VHH according to the invention binding to a growth factor (indicated in the figure as "VHH-6-F2") and a VHH binding to a biomaterial (indicated in the figure as "MA"). […] The fusion proteins (indicated in the figure as "F") were constructed by genetic fusion of a VHH binding to BMP6 and a VHH binding to hydroxyapatite. To achieve binding to the growth factor BMP6 (FIG. 7A), 100 ng of BMP6 was coated into wells of a maxisorb plate. Serial dilutions of the VHH which binds to BMP6 (VHH-6-F2) and fusion proteins according to the invention (F) were added to the wells. Bound VHHs (VHH-6-F2) and fusion proteins (F) were detected with labelled polyclonal antibodies.

[3] = biological target: BMP-7 (R&D system cat. #354-BP/CF) (UniProt P18075); assay: binding test to cognate antigen, method not described

binding [1]: binds
binding [2]: binds
B1: F fusion protein (VHH binding to BMP6, VHH-6-F2, fused to a VHH binding to hydroxyapatite, MA) (protein)
chain: EVQLVESGGGFVQAGGSLRLSCAASGSIFSINAMGWYRQAPGKQRELVAAITSGGSTNYADSVKGRFTISRDNAKNTLYLQMNSLKPEDTAVYYCSAVTILLTSGGWGSGNDYWGQGTQVTVSSGGGGSEVQLVESGGGLVQAGGSLRLSCAASGRTFSTYSMGWFRRAPGKEREFVAAISWSGGTTRYTNSVKGRFTISKDNFGNTVYLQMNNLKPEDTAVYYCATRYSYSTTPEEYDLWGQGNQVTVSS

binding [3]: binds
B2: VHH-7-G7 (VHH, not shown: small tags and cut ends)
VHH: EVQLVESGGGLVQAGGSLRLSCAASGFTFDDYIIGWFRQAPGKEREGISCISSSDGSTYYADSVTGRFTISSDNAKNTVYLQMNSLKPEDTAVYYCAAHAKWPYGTYSFRRCRRASFDSWGQGTQVTVSS
